# Laboratory results taken from PubChem BioAssay AID504834 (National Center for Advancing Translational Sciences (NCATS), 2011).
# The whole screen tested about 320,000 compounds, of which about 22,000 (6.9%) were called active. Inconclusive results, whose numbers are uncertain, are shown with a selection of clear calls. Calls come from the whole dose curve; as a rule, active = well fitted inhibition curve with a large enough effect; inconclusive = small, poorly fitted or top-dose-only effect, or another doubt; inactive = no such curve, though single readings can be large or run the other way. Potencies of inconclusive entries are doubtful fits and often do not repeat.
# Assay: Primary qHTS for delayed death inhibitors of the malarial parasite plastid, 96 hour incubation
# Settings: P. falciparum luciferase reporter growth; series mostly up to 28.7 µM
# How it was run: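 Plates of compound plus infected erythrocytes (2% hematocrit, 0.05% parasitemia final) incubate 96 hours, 37 C, 5% CO2. Detection reagent added; reduced luminescence from the parasites' luciferase reporter flags inhibition.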
# % is set by controls: 0 for no effect and ±100 for the full control effect; potency is the fitted concentration of half-maximal effect.
SMILES,Potency,"activity change, negative = inhibition"
COC(=O)c1ccc(-c2csc(NC(=O)c3ccc(S(=O)(=O)N4CCc5ccccc5C4)cc3)n2)cc1,"inconclusive: 3.7 µM [inhibitor, partial curve, poor fit]",
C=CCN1CCN(C(=O)c2c(-c3ccccc3)noc2C)CC1,inactive,
COc1ccc(C2=NCCn3nc4cc([N+](=O)[O-])ccc4c32)cc1,"inconclusive: 18.5 µM [inhibitor, single point]",
Cc1ccc(S(=O)(=O)NC(=O)Nc2ccccc2)cc1,active: 6.57 µM,
CN(C)CCNC(=O)C(=O)NCC1OCCN1S(=O)(=O)c1cc(F)ccc1F (stereo not given),"inconclusive: 16.5 µM [inhibitor, single point]",
Cc1ccc2nc(SCC(=O)Nc3ccccc3N3CCOCC3)c(C#N)cc2c1,"inconclusive: 18.5 µM [inhibitor, single point]",
CC(C)c1nc(SCC(=O)Nc2ccc([N+](=O)[O-])cc2Br)n[nH]1,"inconclusive: 13.1 µM [inhibitor, single point]",
COc1ccccc1N1CCN(C(=O)CC2NC3CCCCC3NC2=O)CC1 (stereo not given),inactive,
CN1CCN(c2nc(-c3ccccc3Cl)nc3ccccc23)CC1,inactive,
CCCN1CCCC2Cc3nc(N)ncc3CC21 (stereo not given),active: 12 µM,
CC(C)N1CCc2c(sc(NC(=O)c3ccc(S(=O)(=O)N4CCOCC4)cc3)c2C#N)C1,"inconclusive: 3.29 µM [inhibitor, full curve, poor fit]",
O=C(NC1CCCC1)C1CCN(C(=O)c2ccc(Cl)cc2Cl)CC1,inactive,
CNc1cc(CSC)nc(SCc2ccc(Cl)cc2Cl)n1,"inconclusive: 18.5 µM [inhibitor, single point]",
COc1cc([N+](=O)[O-])ccc1NC(=S)N1CCOCC1,"inconclusive: 16.5 µM [inhibitor, partial curve, poor fit]",
CC(C)C(=O)NC(c1ccccc1)c1cc([N+](=O)[O-])c2cccnc2c1O (stereo not given),active: 0.37 µM,
O=C(CSc1ccccn1)Nc1cccc(S(=O)(=O)N2CCCC2)c1,"inconclusive: 9.28 µM [inhibitor, single point]",
Nc1c(Cl)ncnc1N/N=C/c1ccc2ccccc2n1,active: 3.7 µM,
O=C(Nc1ccc(S(=O)(=O)N2CCCCC2)cc1)C1CCN(C(=O)c2ccc(F)cc2)CC1,"inconclusive: 2.62 µM [inhibitor, partial curve]",
CCS(=O)(=O)c1nc(S(=O)(=O)c2ccc(Cl)cc2)c(NCc2ccccn2)s1,inactive,
O=C(c1ccc(F)cc1)N1CCC(C(=O)N2CCN(S(=O)(=O)c3cccc([N+](=O)[O-])c3)CC2)CC1,"inconclusive: 5.22 µM [inhibitor, partial curve]",
COc1ccc(C(=O)Nc2ccccc2SCc2cc(=O)n3nc(C)sc3n2)cc1OC,"inconclusive: 9.28 µM [inhibitor, single point]",
c1coc(-c2nc3nc4ccccc4n3nc2-c2ccco2)c1,"inconclusive: 2.08 µM [inhibitor, full curve]",

SMILES,Potency,"activity change, negative = inhibition"
Cc1cc(SC(C)C(=O)Nc2c(C)n(C)n(-c3ccccc3)c2=O)nc2ccccc12 (stereo not given),"inconclusive: 11.7 µM [inhibitor, single point]",
CC(C)NC(=O)C1CCN(C2CCN(C(=O)c3scc4c3CCCC4)CC2)CC1,"inconclusive: 13.1 µM [inhibitor, partial curve, poor fit]",
CN(CC1CCCO1)S(=O)(=O)c1ccc(C(=O)Nc2nc3cc4c(cc3s2)OCO4)cc1 (stereo not given),"inconclusive: 11.7 µM [inhibitor, partial curve]",
CN1C(=O)N(C)C(=O)C2(Cc3ccccc3N3CCOCC32)C1=O (stereo not given),inactive,
COC(=O)C1=C(Nc2ccccc2NC(=O)c2ccccc2C(=O)O)CSC1,inactive,
COc1ccc(C2=NOC(C(=O)Nc3cccc(O)c3)C2)cc1 (stereo not given),active: 5.22 µM,
O=C(c1cc2c(=O)n3ccccc3nc2s1)N1CCN(c2cccc(Cl)c2)CC1,"inconclusive: 8.28 µM [inhibitor, single point]",
O=C(CNC(=O)c1ccc2c(c1)OCCO2)N/N=C/c1ccc(O)cc1O,"inconclusive: 13.1 µM [inhibitor, single point]",
COc1ccccc1-n1c(SCC(=O)N2CCc3ccccc32)nc2c(c1=O)SCC2,"inconclusive: 5.22 µM [inhibitor, partial curve]",
CCOC(=O)Cc1nnc(NC(=O)C2CCCCC2)s1,inactive,
CCn1ccc(C(=O)Nc2ccsc2C(=O)OC)n1,inactive,
O=C(NC(=S)NCCCN1CCOCC1)c1ccc([N+](=O)[O-])cc1,"inconclusive: 10.4 µM [inhibitor, partial curve]",
COc1ccc(-c2cc(C(F)(F)F)nc(SCC(=O)Nc3cc(C)on3)n2)cc1,inactive,
C/C=C(/C)C(=O)O[C@@H]1c2cc3c(c4c2[C@@]2(CO4)C(=O)C(OC)=C(OC)C=C2C[C@@H](C)[C@H]1C)OCO3,"inconclusive: 10.4 µM [inhibitor, single point]",
CCOC(=O)C1CCCCN1C(=O)c1oc2c(Cl)cc(C)cc2c1C (stereo not given),"inconclusive: 10.4 µM [inhibitor, partial curve, poor fit]",
N/C(=N\OC(=O)COc1ccc2ccccc2c1Br)c1ccccn1,,inactive: -17.8% [at 1.15 µM]
Cc1[nH]c2ccccc2c1/C=C(\C#N)S(=O)(=O)c1ccccc1,"inconclusive: 0.0828 µM [inhibitor, full curve, poor fit]",
COCC(=O)N1CCCC(C(=O)c2ccc(C(F)(F)F)cc2)C1 (stereo not given),"inconclusive: 18.5 µM [inhibitor, single point]",
O=S(=O)(c1ccccc1)N1CCN(Cc2ccccc2)CC1,"inconclusive: 0.208 µM [inhibitor, full curve, poor fit]",
CCOc1ccc(N(CC(=O)NC2CCCCC2C)S(=O)(=O)c2c(C)noc2C)cc1 (stereo not given),"inconclusive: 11.7 µM [inhibitor, single point]",
Nc1cc(=O)[nH]c(SCC(=O)c2ccc(O)cc2O)n1,inactive,
COc1ccc(N2CCN(Cc3nc4ccccc4n3C)CC2)cc1,"inconclusive: 4.65 µM [inhibitor, partial curve, poor fit]",

# Among those listed so far, 2 contain a CF3 group.
SMILES,Potency,"activity change, negative = inhibition"
COc1ccc(-c2cc(C(F)(F)F)nc(SCC(=O)Nc3cc(C)on3)n2)cc1,inactive,
COCC(=O)N1CCCC(C(=O)c2ccc(C(F)(F)F)cc2)C1 (stereo not given),"inconclusive: 18.5 µM [inhibitor, single point]",

# Part of the list above in a different format:
SMILES	Potency	activity change, negative = inhibition
N/C(=N\OC(=O)COc1ccc2ccccc2c1Br)c1ccccn1		inactive: -17.8% [at 1.15 µM]
Cc1[nH]c2ccccc2c1/C=C(\C#N)S(=O)(=O)c1ccccc1	inconclusive: 0.0828 µM [inhibitor, full curve, poor fit]	

# (list continues)

SMILES,Potency,"activity change, negative = inhibition"
COc1ccc(N=C/C=C2\C=C(c3ccccc3)OC(C)(C)O2)cc1,"inconclusive: 18.5 µM [inhibitor, single point]",
COc1ccc(N(C)S(=O)(=O)c2cccc(C(=O)N3CCN(c4ccccc4)CC3)c2)cc1,"inconclusive: 9.28 µM [inhibitor, partial curve]",
Cc1cc(C)nc(SCC(=O)Nc2nc(-c3ccccc3)c(-c3ccccc3)o2)n1,"inconclusive: 18.5 µM [inhibitor, single point]",
CCOC(=O)c1c[nH]n2c(=O)cc(C)nc12,"inconclusive: 0.185 µM [inhibitor, full curve, poor fit]",
Cc1cc(Cl)nc2ccc(Cc3ccc4nc(Cl)cc(C)c4c3)cc12,"inconclusive: 10.4 µM [inhibitor, partial curve, poor fit]",
Cc1cccc(CNC(=O)CCn2ccc3cc(S(=O)(=O)N4CCCC4)ccc32)c1,"inconclusive: 18.5 µM [inhibitor, single point]",
Cc1ccc(C)c2[nH]c(=O)c(CCNC(=O)c3ccc(S(=O)(=O)N4CCOCC4)cc3)cc12,"inconclusive: 2.62 µM [inhibitor, full curve, poor fit]",
COc1cc(OC)cc(OC(=O)C2CCN(S(=O)(=O)c3ccc(OC)c(OC)c3)CC2)c1,inactive,
Cc1nnc2sc(SCc3ccc(Br)cc3)nn2c1=O,"inconclusive: 5.22 µM [inhibitor, partial curve, poor fit]",
CCN(CC)C1CC(=O)N(c2ccc(Br)cc2)C1=O (stereo not given),"inconclusive: 18.5 µM [inhibitor, single point]",
COc1ccc(C2N3CC4(C)CN2CC(C)(C3)C4)cc1OC (stereo not given),"inconclusive: 0.0415 µM [inhibitor, full curve, poor fit]",
Cc1cc(Cl)ccc1NC(=S)N1CCC(C(N)=O)(N2CCCCC2)CC1,"inconclusive: 18.5 µM [inhibitor, single point]",
COc1ccc(C(=O)N/N=C/c2ccc(OC)c(COc3ccc(F)cc3)c2)cc1,"inconclusive: 2.33 µM [inhibitor, full curve, poor fit]",
CN(C)[C@@H]1C(=O)C(C(N)=O)=C(O)[C@@]2(O)C(=O)C3=C(O)c4c(O)ccc(Cl)c4[C@@](C)(O)C3C[C@@H]12 (stereo not given in full),"inconclusive: 13.1 µM [inhibitor, partial curve, poor fit]",
COc1ccc(/C=N/OCC(=O)Nc2nc3ccccc3s2)cc1,inactive,
O=C(C1=C[C@H](c2coc3ccccc3c2=O)C[C@H](OCCCCO)O1)N1CCOCC1,inactive,
Cc1ccc(S(=O)(=O)Cc2ccc(C(=O)NC3CCCCCC3)o2)cc1,"inconclusive: 18.5 µM [inhibitor, single point]",
COc1cc(OC)cc(N2CCN(S(=O)(=O)c3ccc(-n4cnnn4)cc3)CC2)c1,"inconclusive: 18.5 µM [inhibitor, single point]",
COc1cc(C(=O)N[C@H](C(=O)NC(C)C23CC4CC(CC(C4)C2)C3)C(C)C)cc(OC)c1OC (stereo not given in full),"inconclusive: 13.1 µM [inhibitor, single point]",
CCN(Cc1ccccc1)S(=O)(=O)c1c(C)[nH]c(C)c1C(=O)N1CCCC1,"inconclusive: 11.7 µM [inhibitor, single point]",
COc1ccc(S(=O)(=O)N2CCCCCC2)cc1C(=O)NCc1cccs1,"inconclusive: 9.28 µM [inhibitor, single point]",
